{"source": "PubChem BioAssay AID602196 | INSERM, 2012", "assay": "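Knock-downs that protect lung cancer cells from cisplatin or sensitise them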", "cell system": "human A549 lung cancer cells", "reagents": "siRNA pair against human genes", "time to read-out": "48 h transfection before cisplatin; time from cisplatin to read-out not stated", "conditions": "cisplatin at a dose killing half of control-siRNA cells; exact dose and duration not given", "detection": "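Cisplatin cell death as a shift from the 50% death seen with control siRNA; siRNAs toxic or growth-blocking alone scored 0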", "reading the numbers": "two-siRNA summed score (-2 to +2): higher = both siRNAs protect from cisplatin killing; -2 means both sensitise", "hit rule": "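siRNAs harmful alone (LDH or WST-1) get 0; others get +1 for less and -1 for more cisplatin killing; genes are active when the two siRNAs give the same sign, summing to ±2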", "meaning of the calls": "active = both siRNAs shift cisplatin killing the same way; inactive = no consistent shift, or siRNA harmful alone", "note": "The deposit covers about 23,000 reagents; this is an unselected part. Of all reagents, 455 (2%) were called active. 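Active includes both protection and sensitisation; some change values fall well beyond the stated -50 to +50 range.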 Not all columns of the deposit are shown. Reagent sequences are not shown. The record does not give: the amount of reagent."}
The opening 2 records as a preview:
{"gene": "SLC18A1 (GeneID 6570)", "two-siRNA summed score (-2 to +2)": -1, "Outcome": "inactive"}
{"gene": "PRR18 (GeneID 285800)", "two-siRNA summed score (-2 to +2)": 0, "Outcome": "inactive"}

Main list, repeating the preview:
{"gene": "SLC18A1 (GeneID 6570)", "two-siRNA summed score (-2 to +2)": -1, "Outcome": "inactive"}
{"gene": "PRR18 (GeneID 285800)", "two-siRNA summed score (-2 to +2)": 0, "Outcome": "inactive"}
{"gene": "GLRX3 (GeneID 10539)", "two-siRNA summed score (-2 to +2)": -1, "Outcome": "inactive"}
{"gene": "LOC339022", "two-siRNA summed score (-2 to +2)": 0, "Outcome": "inactive"}
{"gene": "ELMO1 (GeneID 9844)", "two-siRNA summed score (-2 to +2)": 0, "Outcome": "inactive"}
{"gene": "ZNF473CR (GeneID 400710)", "two-siRNA summed score (-2 to +2)": 0, "Outcome": "inactive"}
{"gene": "LOC123688", "two-siRNA summed score (-2 to +2)": 0, "Outcome": "inactive"}
{"gene": "CRTAC1 (GeneID 55118)", "two-siRNA summed score (-2 to +2)": 0, "Outcome": "inactive"}
{"gene": "LPAR2 (GeneID 9170)", "two-siRNA summed score (-2 to +2)": 1, "Outcome": "inactive"}
{"gene": "POLG2 (GeneID 11232)", "two-siRNA summed score (-2 to +2)": 2, "Outcome": "active"}
{"gene": "HCFC2 (GeneID 29915)", "two-siRNA summed score (-2 to +2)": 0, "Outcome": "inactive"}
{"gene": "SAFB (GeneID 6294)", "two-siRNA summed score (-2 to +2)": 0, "Outcome": "inactive"}
